Laboratory results: patent publication US20180147257A1
These are yes or no findings as the source states them, for the method shown. For some of these results: In cells and extracts the contact can be indirect. Some results given as binding are weak or reduced against the parent protein; the word gives no strength.

By UniProt entry, the sequences of proteins in these tests, tags left out. Where a name states a change or a piece, a line headed by the entry shows the natural chain unless it says otherwise. Residues count along the entry.
UniProt O00481: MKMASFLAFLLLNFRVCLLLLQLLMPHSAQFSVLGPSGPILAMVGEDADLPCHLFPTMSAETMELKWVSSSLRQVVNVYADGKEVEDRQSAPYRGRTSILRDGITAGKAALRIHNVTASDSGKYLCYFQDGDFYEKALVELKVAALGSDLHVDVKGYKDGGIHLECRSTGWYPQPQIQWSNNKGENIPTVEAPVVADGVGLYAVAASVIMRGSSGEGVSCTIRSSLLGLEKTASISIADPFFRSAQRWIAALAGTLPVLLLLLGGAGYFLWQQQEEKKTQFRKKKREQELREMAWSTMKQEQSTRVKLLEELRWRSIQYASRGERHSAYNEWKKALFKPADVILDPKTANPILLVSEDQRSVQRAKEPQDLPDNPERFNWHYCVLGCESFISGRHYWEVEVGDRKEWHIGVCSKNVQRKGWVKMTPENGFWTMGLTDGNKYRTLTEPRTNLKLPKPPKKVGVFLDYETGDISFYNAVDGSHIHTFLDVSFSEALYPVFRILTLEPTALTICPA
UniProt P36941, residues 31-227: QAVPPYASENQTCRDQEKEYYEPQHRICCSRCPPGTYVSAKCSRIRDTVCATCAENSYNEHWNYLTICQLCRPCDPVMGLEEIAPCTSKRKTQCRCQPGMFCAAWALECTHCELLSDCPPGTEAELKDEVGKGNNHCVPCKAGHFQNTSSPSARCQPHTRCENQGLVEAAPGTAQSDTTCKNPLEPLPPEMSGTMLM

Key:
[1] = target: full-length BTN3A1 ectodomain displayed on yeast cells (human) (UniProt O00481); assay: FACS staining of yeast displaying the BTN3A1 ectodomain with purified LTβR-IgG1
[2] = target: full-length BTN3A1 ectodomain displayed on yeast cells (human) (UniProt O00481); assay: FACS staining of yeast displaying the full-length BTN3A1 ectodomain with purified LTβR-IgG1 at different concentrations
LTβR-IgG1 fusion protein [3] = target: LTβR-IgG1 fusion protein (UniProt P36941); assay: pull-down on Protein A agarose beads, silver-stained polyacrylamide gel
LTβR-IgG1 fusion protein [4] = target: LTβR-IgG1 fusion protein (UniProt P36941); assay: pull-down with LtβR-IgG1 as bait on Protein A agarose beads, SDS-PAGE

binding [1] | binding [2] | binding (LTβR-IgG1 fusion protein [3]) | binding (LTβR-IgG1 fusion protein [4]) | Substance
binds | binds | – | – | LTβR-IgG1 fusion protein (from UniProt P36941 31-227) (Fc fusion)
– | – | binds | binds | recombinant BTN3A1 monomer (from UniProt O00481 30-246) (receptor)
